Results: PMC11269292
Like-named read-outs stand apart in the source and are kept apart here. These are yes or no findings as the source states them, for the method shown. Binding seen in cells or lysates may run through a third protein. These calls come from enrichment with a bait or labelling near it, and not all partners need be listed. Sequences can lack the tags named with a protein.

Chains of the proteins cited; added tags and fusions are not shown.
UniProt Q15165: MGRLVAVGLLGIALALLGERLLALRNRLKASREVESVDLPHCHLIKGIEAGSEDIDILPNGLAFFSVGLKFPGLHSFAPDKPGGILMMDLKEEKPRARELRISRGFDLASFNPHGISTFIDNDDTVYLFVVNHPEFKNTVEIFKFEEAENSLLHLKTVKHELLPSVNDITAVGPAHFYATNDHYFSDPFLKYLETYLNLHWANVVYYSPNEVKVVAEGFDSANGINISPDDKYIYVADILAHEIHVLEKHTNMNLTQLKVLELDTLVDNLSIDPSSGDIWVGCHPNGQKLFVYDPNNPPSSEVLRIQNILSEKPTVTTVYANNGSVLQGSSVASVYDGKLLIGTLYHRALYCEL

Columns and labels:
[1] = molecular target: T1, ASGR1 with a C-Flag tag, stably overexpressed in HepG2 cells (human) (UniProt P07306); assay: affinity purification with mass spectrometry; lysate of HepG2 cells stably overexpressing ASGR1 (C-Flag tag); anti-Flag antibody or isotype mouse IgG overnight at 4°C, Protein A/G-Agarose beads, five washes with IP Lysis buffer; solution and beads samples by LC-MS/MS; proteins in the IgG control excluded
T1 sequence: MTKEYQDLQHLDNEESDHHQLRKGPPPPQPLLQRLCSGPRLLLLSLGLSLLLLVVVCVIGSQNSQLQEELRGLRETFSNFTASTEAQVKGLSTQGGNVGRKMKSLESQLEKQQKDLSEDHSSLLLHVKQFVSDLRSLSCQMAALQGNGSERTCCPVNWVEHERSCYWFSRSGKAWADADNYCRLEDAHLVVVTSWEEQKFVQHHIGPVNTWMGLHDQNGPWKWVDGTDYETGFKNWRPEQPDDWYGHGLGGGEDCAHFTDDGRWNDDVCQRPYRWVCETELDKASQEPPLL

[2] = molecular target: T1, ASGR1 with a C-Flag tag, stably overexpressed in HepG2 cells (human); assay: as above; remark: listed apart in the source

## paraoxonase-2 (PON2), endogenous in HepG2 cells (from UniProt Q15165 1-354)
[1]
  binding: binds

B1: GPX8, endogenous in HepG2 cells (protein, UniProt Q8TED1 1-209)
chain: MEPLAAYPLKCSGPRAKVFAVLLSIVLCTVTLFLLQLKFLKPKINSFYAFEVKDAKGRTVSLEKYKGKVSLVVNVASDCQLTDRNYLGLKELHKEFGPSHFSVLAFPCNQFGESEPRPSKEVESFARKNYGVTFPIFHKIKILGSEGEPAFRFLVDSSKKEPRWNFWKYLVNPEGQVVKFWKPEEPIEVIRPDIAALVRQVIIKKKEDL
[2]
  binding: binds
